Data reported in paper PMC9866861, “The More the Better—Investigation of Polymethoxylated N-Carboranyl Quinazolines as Novel Hybrid Breast Cancer Resistance Protein Inhibitors” (Pharmaceutics, 2023).
Some entries repeat one wording, which the source may state once for all of them.

System: MDCKII-hABCG2 and MDCKII-WT cells
Experiment: Autofluorescence (modified Hoechst assay without dye)
Type: cell-based, canine
Details: 0.5 and 1.0 µM, 4 h, no Hoechst dye; Ko143 1 µM

Row | Molecule | autofluorescence (total intracellular fluorescence vs solvent control)
1 | N-(closo-1,7-dicarbadodecaboran(12)-9-yl)-6,7-dimethoxy-2-(3,4,5-trimethoxyphenyl)-quinazolin-4-amine [DMQCd] | dose-dependent significant increase in the total intracellular fluorescence
2 | N-(closo-1,7-dicarbadodecaboran(12)-9-yl)-6,7-dimethoxy-2-(3,4-dimethoxy-phenyl)-quinazolin-4-amine [DMQCc] | dose-dependent significant increase in the total intracellular fluorescence
3 | N-(closo-1,7-dicarbadodecaboran(12)-9-yl)-6,7-dimethoxy-2-(4-methoxy-phenyl)quinazolin-4-amine [DMQCb] | dose-dependent significant increase in the total intracellular fluorescence
4 | N-(closo-1,7-dicarbadodecaboran(12)-9-yl)-6,7-dimethoxy-2-phenyl-quinazolin-4-amine [DMQCa] | dose-dependent significant increase in the total intracellular fluorescence
5 | N-(closo-1,7-dicarbadodecaboran(12)-9-yl)-2-(4-methoxyphenyl)-quinazolin-4-amine [QCb] | dose-dependent significant increase in the total intracellular fluorescence
6 | COc1ccc2c3c([nH]c2c1)[C@H](CC(C)C)N1C(=O)[C@H](CCC(=O)OC(C)(C)C)NC(=O)[C@@H]1C3 [Ko143, (3S,6S,12aS)-1,2,3,4,6,7,12,12a-octahydro-9-methoxy-6-(2-methylpropyl)-1,4-dioxopyrazino[1′,2′:1,6]pyrido[3,4-b]indole-3-propanoic acid 1,1-dimethylethyl ester, reference compound] | emitted no fluorescence itself
7 | N-(closo-1,7-dicarbadodecaboran(12)-9-yl)-2-(3,4,5-trimethoxyphenyl)-quinazolin-4-amine [QCd] | dose-dependent significant increase in the total intracellular fluorescence
8 | N-(closo-1,7-dicarbadodecaboran(12)-9-yl)-2-(3,4-dimethoxyphenyl)-quinazolin-4-amine [QCc] | enhanced the intracellular fluorescence in a significant manner
